# PubChem BioAssay AID504764, Drosophila RNAi Screening Center | 2011
# Screen: 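Knock-downs that raise or lower a Notch target reporter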 (primary screen)
# Cell system: Drosophila Kc167 cells
# Reagent: long dsRNA against Drosophila genes
# Duration: about 5 days (4 days dsRNA, then 24 h after transfection)
# Conditions: transfection of constitutively active membrane-tethered Notch lacking the extracellular domain, read 24 h later
# Read-out: 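Firefly luciferase from an E(spl)m3 reporter with active Notch, plus control-promoter and uninduced reporter wells for normalisation; unnormalised counts, duplicate wells a and b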
# Direction: induced reporter light, run 1, well a and induced reporter light, run 1, well b: higher = more light from the Notch target reporter with active Notch; control promoter light, run 1, well a and control promoter light, run 1, well b: higher = more light from the viral control promoter (cell number, transfection, viability); uninduced reporter light, run 1, well a: higher = more light from the Notch target reporter without active Notch
# Active means: 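Hit if the duplicate-averaged log2 ratio of induced to control-promoter light gives a plate-wise z beyond ±2, or induced to uninduced beyond ±1.8; weak-control or discordant-duplicate wells dropped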
# Calls: active = modifier hit (raised or lowered Notch signal); inactive = not a hit
# The deposit covers about 22,000 reagents; shown is a random part of those that have a named target and a result. Of all reagents, 403 (1.9%) got an active call. 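Unnormalised raw counts per well; ratio z-scores behind the hit calls and whether each hit raises or lowers signal are not deposited.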 Unmarked entries are inactive. Not stated in the record: the amount of reagent.
Gene,amplicon,"induced reporter light, run 1, well a","induced reporter light, run 1, well b","control promoter light, run 1, well a","control promoter light, run 1, well b","uninduced reporter light, run 1, well a"
CG2126,DRSC15418,1.29e5,1.17e5,2.27e5,2.17e5,8510
olf186-M,DRSC07657,1.24e5,1.07e5,1.31e5,1.63e5,9728
CG16970 (retired record),DRSC01310,1.13e5,77850,1.28e5,1.14e5,8015
CG16970 (retired record),DRSC02549,1.32e5,1.71e5,1.74e5,1.58e5,13770
CG17261,DRSC00498,1.77e5,1.31e5,1.91e5,1.53e5,11230
mrt (martik),DRSC15484,1.01e5,1.23e5,2.07e5,1.86e5,11105
CG14759,DRSC06494,2.11e5,2.24e5,2.40e5,2.87e5,20120
ced-6,DRSC07591,1.46e5,1.49e5,1.91e5,1.60e5,14528
CG14507,DRSC14859,1.04e5,93600,1.54e5,1.40e5,10540
CG14221,DRSC19578,78420,84470,1.30e5,1.22e5,9015
sage (salivary gland-expressed bHLH),DRSC14580,1.66e5,1.67e5,2.94e5,3.18e5,13510
CG33285,DRSC11463,2.08e5,2.14e5,2.56e5,2.66e5,18905
GstD6 (Glutathione S transferase D6),DRSC16687,90840,93685,85145,62175,5690
Spt20,DRSC10280,7380,5945,9042,6870,2210
CG30010,DRSC05193,62525,75910,86475,83590,3590
PGRP-SB2 (Peptidoglycan recognition protein SB2),DRSC11092,2.40e5,2.42e5,3.11e5,2.36e5,9570
CG12674,DRSC00348,1.30e5,1.08e5,1.07e5,52055,8870
CG3085,DRSC04335,1.95e5,1.98e5,1.66e5,1.73e5,15650
CG32163,DRSC09442,1.53e5,1.46e5,1.94e5,2.41e5,14885
CG18764,DRSC15391,82545,98920,68820,54755,5205
CG12942,DRSC06253,1.75e5,1.53e5,1.67e5,1.63e5,15250
dpr5 (defective proboscis extension response 5),DRSC15766,71100,85395,72530,52330,4785
CG32147,DRSC09346,1.55e5,1.66e5,1.54e5,1.90e5,13205
nSMase (neutral sphingomyelinase),DRSC08237,98670,1.08e5,90185,31580,10120
CG13344,DRSC06378,1.99e5 (active),1.87e5,1.23e5,1.55e5,12628
ICA69 (Islet cell autoantigen 69 kDa),DRSC11621,1.18e5,97515,56050,68265,9450
St2 (Sulfotransferase 2),DRSC15142,1.31e5,1.03e5,1.03e5,72790,9195
CG34247,DRSC09933,1.92e5,1.54e5,1.61e5,2.51e5,8415
Hem (HEM-protein),DRSC11865,1.09e5,81145,1.06e5,1.47e5,7970
Jhbp6 (Juvenile hormone binding protein 6),DRSC11714,1.33e5,1.16e5,1.31e5,97730,8115
Zpr1,DRSC18432,2.49e5,2.24e5,2.49e5,2.49e5,17410
CG14840,DRSC14964,3.28e5,4.01e5,3.20e5,3.72e5,29570
CG6753,DRSC16108,84140,78585,94710,54775,5270
cn (cinnabar),DRSC07594,1.46e5,1.74e5,1.91e5,1.56e5,13332

Individual results from the entries so far.
CG34247 [DRSC09933], induced reporter light, run 1, well a → 1.92e5
Under “uninduced reporter light, run 1, well a”, ced-6 [DRSC07591] has 14528
Value of nSMase (neutral sphingomyelinase) [DRSC08237] under “uninduced reporter light, run 1, well a”: 10120
Under “control promoter light, run 1, well b”, CG32163 [DRSC09442] is entered as 2.41e5
